Measured values published in PMC11861591.
Results are given in words; binding and its absence hold for the method and conditions named. In cells and extracts the contact can be indirect. Some results given as binding are weak or reduced against the parent protein; the word gives no strength. Tags and fused reporters may be left off the sequences shown.

T1: Flag-RAB33A (UniProt Q14088)
T1 sequence: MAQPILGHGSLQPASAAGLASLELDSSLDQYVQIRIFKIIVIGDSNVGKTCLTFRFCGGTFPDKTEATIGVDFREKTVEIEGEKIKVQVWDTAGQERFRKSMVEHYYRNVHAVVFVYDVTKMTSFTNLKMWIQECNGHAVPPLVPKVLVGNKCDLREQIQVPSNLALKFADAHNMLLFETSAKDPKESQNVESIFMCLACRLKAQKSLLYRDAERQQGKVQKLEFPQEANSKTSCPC


Target: T1, Flag-RAB33A
Assay: co-IP; lysates (RIPA buffer: 150 mM NaCl, 0.5% EDTA, 50 mM Tris-HCl, 0.5% NP40) of cotransfected HEK293T cells incubated with anti-Flag agarose beads for 1.5 h at 4 °C, six washes with RIPA buffer, western blotting

binding | Binder
binds | V5-TBC1D2A (protein, UniProt Q9BYX2 1-928) MEGAGENAPESSSSAPGSEESARDPQVPPPEEESGDCARSLEAVPKKLCGYLSKFGGKGPIRGWKSRWFFYDERKCQLYYSRTAQDANPLDSIDLSSAVFDCKADAEEGIFEIKTPSRVITLKAATKQAMLYWLQQLQMKRWEFHNSPPAPPATPDAALAGNGPVLHLELGQEEAELEEFLCPVKTPPGLVGVAAALQPFPALQNISLKHLGTEIQNTMHNIRGNKQAQGTGHEPPGEDSPQSGEPQREEQPLASDASTPGREPEDSPKPAPKPSLTISFAQKAKRQNNTFPFFSEGITRNRTAQEKVAALEQQVLMLTKELKSQKELVKILHKALEAAQQEKRASSAYLAAAEDKDRLELVRHKVRQIAELGRRVEALEQERESLAHTASLREQQVQELQQHVQLLMDKNHAKQQVICKLSEKVTQDFTHPPDQSPLRPDAANRDFLSQQGKIEHLKDDMEAYRTQNCFLNSEIHQVTKIWRKVAEKEKALLTKCAYLQARNCQVESKYLAGLRRLQEALGDEASECSELLRQLVQEALQWEAGEASSDSIELSPISKYDEYGFLTVPDYEVEDLKLLAKIQALESRSHHLLGLEAVDRPLRERWAALGDLVPSAELKQLLRAGVPREHRPRVWRWLVHLRVQHLHTPGCYQELLSRGQAREHPAARQIELDLNRTFPNNKHFTCPTSSFPDKLRRVLLAFSWQNPTIGYCQGLNRLAAIALLVLEEEESAFWCLVAIVETIMPADYYCNTLTASQVDQRVLQDLLSEKLPRLMAHLGQHHVDLSLVTFNWFLVVFADSLISNILLRVWDAFLYEGTKVVFRYALAIFKYNEKEILRLQNGLEIYQYLRFFTKTISNSRKLMNIAFNDMNPFRMKQLRQLRMVHRERLEAELRELEQLKAEYLERRASRRRAVSEGCASEDEVEGEA
no binding | V5-TBC1D2A^∆CC (protein, UniProt Q9BYX2) MEGAGENAPESSSSAPGSEESARDPQVPPPEEESGDCARSLEAVPKKLCGYLSKFGGKGPIRGWKSRWFFYDERKCQLYYSRTAQDANPLDSIDLSSAVFDCKADAEEGIFEIKTPSRVITLKAATKQAMLYWLQQLQMKRWEFHNSPPAPPATPDAALAGNGPVLHLELGQEEAELEEFLCPVKTPPGLVGVAAALQPFPALQNISLKHLGTEIQNTMHNIRGNKQAQGTGHEPPGEDSPQSGEPQREEQPLASDASTPGREPEDSPKPAPKPSLTISFAQKAKRQNNTFPFFSEGIQVICKLSEKVTQDFTHPPDQSPLRPDAANRDFLSQQGKIEHLKDDMEAYRTQNCFLNSEIHQVTKIWRKVAEKEKALLTKCAYLQARNCQVESKYLAGLRRLQEALGDEASECSELLRQLVQEALQWEAGEASSDSIELSPISKYDEYGFLTVPDYEVEDLKLLAKIQALESRSHHLLGLEAVDRPLRERWAALGDLVPSAELKQLLRAGVPREHRPRVWRWLVHLRVQHLHTPGCYQELLSRGQAREHPAARQIELDLNRTFPNNKHFTCPTSSFPDKLRRVLLAFSWQNPTIGYCQGLNRLAAIALLVLEEEESAFWCLVAIVETIMPADYYCNTLTASQVDQRVLQDLLSEKLPRLMAHLGQHHVDLSLVTFNWFLVVFADSLISNILLRVWDAFLYEGTKVVFRYALAIFKYNEKEILRLQNGLEIYQYLRFFTKTISNSRKLMNIAFNDMNPFRMKQLRQLRMVHRERLEAELRELEQLKAEYLERRASRRRAVSEGCASEDEVEGEA
